Reference: patent US20210355446A1
Results are given in words; binding and its absence hold for the method and conditions named. Some binding calls cover weakened binding; strength is not graded here.

Chains of the proteins cited; added tags and fusions are not shown. Lines headed by an entry give the natural chain unless they say otherwise; changes in a name come on top.
UniProt O43653: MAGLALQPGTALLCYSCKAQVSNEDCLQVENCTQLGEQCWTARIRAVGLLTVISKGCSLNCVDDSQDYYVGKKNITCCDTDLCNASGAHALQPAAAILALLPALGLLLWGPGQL

Biological target: prostate stem cell antigen (PSCA), transgenic on PC3^PSCA-derived feeder cells (human) (UniProt O43653)
Assay: flow cytometry on PSCA-positive PC3^PSCA-derived feeder cells

B1: biotinylated anti-PSCA scFv (scFv(AM1)-P-BAP) (scFv, not shown: small tags and cut ends)
scFv: DAAQPARRARRTKLGTELGSQVKLQESGGGLVQPGGSLKLSCVASGFTFSSYTMSWVRRTPEKRLEWVAYIHNGGGHTYYPDTIKGRFTISRDNAKNTLFLEMSSLKSEDTAMYYCTRRMYYGNSHWYFDVWGAGTSVTVSSAKTTPPSVYGGGGSGGGGSGGGGSTNSDIVMTQSPSSLSASLGDRVTINCRTSQDISNYLNWYQLTPDGTVKLLIYYTLKLNSGVPSRFSGSGSGTDYSLTINNLEKEDFATYFCQQSKTLPWTFGGGTKLEIKRADAAPTVSGP
modifications: biotinylated (biotin acceptor peptide)
binding: binds
